Test results reported in PubChem BioAssay AID504848 (National Center for Advancing Translational Sciences (NCATS), 2011).
Among all 2,300 compounds or so, about 1,400 (61%) were called active. So high a share suggests a set chosen from earlier hits. Inconclusive results, whose numbers are uncertain, are shown with a selection of clear calls. Calls come from the whole dose curve; as a rule, active = well fitted inhibition curve with a large enough effect; inconclusive = small, poorly fitted or top-dose-only effect, or effect the other way; inactive = no such curve, though single readings can be large or run the other way. Potencies of inconclusive entries are doubtful fits and often do not repeat.

experiment: Confirmation screen for delayed death inhibitors of the malarial parasite plastid, 96 hour incubation; note: nearly all actives have a fitted effect of over 60% in size; conditions: P. falciparum luciferase growth in erythrocytes; series mostly up to 28.7 µM
Method in brief: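 Erythrocytes infected with luciferase-expressing P. falciparum (2% hematocrit, 0.1% parasitemia final) in RPMI 1640 with 0.5% Albumax, exposed to compounds 96 h at 37 C, 5% CO2. Growth inhibition read as decreased luciferase luminescence.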
Potency is the fitted concentration of half-maximal effect.

Row | Structure (SMILES) | Potency
1 | COc1cccc(COC(=O)C2CC(=O)N(Cc3ccco3)C2)c1OC (centres undefined) | inactive
2 | CCN(CC)c1ccc(/C=C/c2cccc[n+]2C)c(OC)c1 | active: 0.141 µM
3 | CCn1c(Cc2ccccc2)nnc1SCC(=O)Nc1nc(C)cs1 | inconclusive: 15.8 µM [inhibitor, single point]
4 | O=S(=O)(NCC(O)c1ccccc1)c1cc(Cl)sc1Cl (centres undefined) | inactive
5 | CCS(=O)(=O)c1ccc(Sc2nncn2C)c([N+](=O)[O-])c1 | inconclusive: 15.8 µM [inhibitor, partial curve, poor fit]
6 | CC(=O)Nc1ccc(S(=O)(=O)N2CCN=C2SCc2ccc(F)cc2)cc1 | inconclusive: 14.1 µM [inhibitor, single point]
7 | O=Cc1s/c(=N\S(=O)(=O)c2ccccc2)n(CCCCl)c1Cl | inconclusive: 14.1 µM [inhibitor, single point]
8 | CC1(C)COC(/C=C/c2ccc([N+](=O)[O-])cc2)=N1 | inconclusive: 15.8 µM [inhibitor, single point]
9 | Cn1cc([N+](=O)[O-])c(C(=O)Nc2ccn(C34CC5CC(CC(C5)C3)C4)n2)n1 | inactive
10 | O=c1oc(-c2ccccc2NS(=O)(=O)c2ccc3ccccc3c2)nc2ccccc12 | inconclusive: 0.0316 µM [inhibitor, full curve]
11 | CCc1nn(CC(=O)N(C)C2CCCCC2)c(=O)c2cc3cc(C)ccc3n12 | inconclusive: 3.98 µM [inhibitor, full curve]
12 | CCOc1ccc(C2c3[nH]c4ccccc4c3CCN2Cc2cccn2-c2ncccn2)cc1 (centres undefined) | inconclusive: 6.31 µM [inhibitor, partial curve, poor fit]
13 | Cc1cccc(NC(=O)c2cc(S(=O)(=O)NCc3ccco3)ccc2F)c1C | inconclusive: 10 µM [inhibitor, partial curve]
14 | O=C1Nc2ccccc2/C1=C/C(=O)c1cccs1 | inconclusive: 7.08 µM [inhibitor, partial curve, poor fit]
15 | O=C(CCS(=O)(=O)c1ccccc1)N(CCCN1CCOCC1)c1nc2c(F)cccc2s1 | inconclusive: 15.8 µM [activator, single point]
16 | Clc1ccc(-n2cccc2CN2CCc3c([nH]c4ccccc34)C2c2ccccn2)nc1 (centres undefined) | inconclusive: 15.8 µM [inhibitor, single point]
17 | CCOC(=O)COc1ccc(Br)cc1/C=C/c1[nH]c(=O)[nH]c(=O)c1[N+](=O)[O-] | inconclusive: 15.8 µM [inhibitor, single point]
18 | O=C(CN1CCc2ccccc2C1)Nc1ccccc1Cl | inconclusive: 14.1 µM [inhibitor, partial curve]
19 | CCCSc1nc2c(cnn2-c2ccccc2)c(=O)[nH]1 | inactive
20 | C/C(=N/OCO/N=C(\C)c1ccccc1)c1ccccc1 | inactive
21 | CC1(C)COC(/C=C/c2cccc([N+](=O)[O-])c2)=N1 | active: 8.91 µM
22 | Cc1ccc(C(=O)NCCc2c[nH]c3ccccc23)c(C)c1 | inconclusive: 4.47 µM [activator, full curve]
23 | Cc1ccc(-n2c(SCC(=O)Nc3ncc(Cl)cc3Cl)nc3ccccc32)cc1 | active: 11.2 µM

Shown as comma-separated lines: part of the list above
Row,Structure (SMILES),Potency
3,CCn1c(Cc2ccccc2)nnc1SCC(=O)Nc1nc(C)cs1,"inconclusive: 15.8 µM [inhibitor, single point]"
4,O=S(=O)(NCC(O)c1ccccc1)c1cc(Cl)sc1Cl (centres undefined),inactive
5,CCS(=O)(=O)c1ccc(Sc2nncn2C)c([N+](=O)[O-])c1,"inconclusive: 15.8 µM [inhibitor, partial curve, poor fit]"
6,CC(=O)Nc1ccc(S(=O)(=O)N2CCN=C2SCc2ccc(F)cc2)cc1,"inconclusive: 14.1 µM [inhibitor, single point]"

(listing goes on)

Row | Structure (SMILES) | Potency
24 | CCc1ccc(Nc2n[n+](-c3ccccc3)c(-c3cccc(Cl)c3Cl)s2)cc1 | active: 2.82 µM
25 | Cc1ccccc1NC(=O)Cc1nc(COC(=O)c2cccc([N+](=O)[O-])c2)cs1 | inconclusive: 11.2 µM [inhibitor, single point]
26 | Cc1c(CN2CCC(CO)(CCOc3ccccc3)CC2)[nH]c2ccc(Cl)cc12 | active: 5.62 µM
27 | COCCNC(=O)CCCCCN1C(=O)CCC1=O | inactive
28 | CCc1ccc(C(=O)NNc2ccc(C)c(Cl)c2)cc1 | inactive
29 | CC(=O)c1ccc(S(=O)(=O)N(C)CCCC(=O)NCc2ccc3c(c2)OCO3)cc1 | inconclusive: 14.1 µM [inhibitor, partial curve, poor fit]
30 | CSc1ccc(/C=C/C(=O)c2ccc(NC(=O)C(C)C)cc2)cc1 | inactive
31 | CCOc1ccc(-c2cc(C(=O)O)c3ccccc3n2)c(OCC)c1 | inconclusive: 11.2 µM [inhibitor, single point]
32 | COC(=O)c1cc(NC(=O)CN2CCc3cc4c(cc3C2)OCCCO4)cc(C(=O)OC)c1 | inconclusive: 12.6 µM [inhibitor, partial curve, poor fit]
33 | C=CCN(c1nc(C)c(Br)c(OC)n1)S(=O)(=O)c1ccc(C)cc1 | inconclusive: 12.6 µM [inhibitor, single point]
34 | O=C(NC(Cc1c[nH]c2ccccc12)C(=O)Nc1ccc(OC(F)(F)F)cc1)c1cccs1 (centres undefined) | inconclusive: 12.6 µM [inhibitor, single point]
35 | Cc1cccc(CS(=O)(=O)c2ncc(Cl)c(C(=O)Nc3c(C)cccc3C)n2)c1 | inactive
36 | COC(=O)[C@]1(C)CCC[C@@]2(C)C3CC[C@]4(OC(C)=O)C[C@@]3(CCC21)CC4=NO (some centres undefined) | inconclusive: 10 µM [inhibitor, partial curve, poor fit]
37 | O=C(Nc1nnc(SCC(=O)N2CCCC2)s1)C1CC(=O)N(c2ccc(F)cc2)C1 (centres undefined) | inconclusive: 12.6 µM [inhibitor, single point]
38 | Cc1ccccc1-n1nc2c(c1NC(=O)C1CCCC1)CS(=O)(=O)C2 | inactive
39 | CC(=O)c1ccccc1NS(=O)(=O)c1ccc2c(c1)CC(=O)N2 | inconclusive: 14.1 µM [inhibitor, single point]
40 | CC(C)Nc1nc2ccccc2c(=O)[nH]1 | inconclusive: 15.8 µM [inhibitor, single point]
41 | O=C(N1CCOCC1)N1c2ccccc2Sc2ccccc21 | inactive
42 | CC(=O)/C(=N\Nc1ccc(Cl)cc1)Sc1nnc(-c2ccccc2)n1-c1ccccc1 | inconclusive: 14.1 µM [inhibitor, single point]
43 | COc1cc(/C=N/NC(=S)Nc2cccc(S(=O)(=O)N(C)C)c2)cc(OC)c1O | inconclusive: 7.08 µM [inhibitor, partial curve]
44 | COc1cccc(NC(=O)CSc2ccc3nnc(CCNC(=O)c4ccccc4)n3n2)c1 | inactive
45 | CCCCN1CC(=O)N2[C@H]3c4ccc(OC)cc4OC[C@@H]3[C@H](C(=O)OCC)[C@]2(C)C1=O | inconclusive: 8.91 µM [inhibitor, partial curve]
46 | CC(C)Oc1ccccc1-c1cc(C(=O)N/N=C/c2cccnc2)c2ccccc2n1 | inconclusive: 10 µM [inhibitor, partial curve, poor fit]

Row | Structure (SMILES) | Potency
47 | CCOC(=O)c1cnc2ccccc2c1NCCc1ccc(OC)c(OC)c1 | active: 5.01 µM
48 | CC(=O)Oc1ccc(-c2csc(Nc3cccnc3)n2)cc1 | inactive
49 | CCCCCCC1C(C#N)=C(N)OC2=C1C(=O)CCC2 (centres undefined) | inactive
50 | COc1cc(NC(=O)C2CCN(S(=O)(=O)c3ccc(N4CCCC4=O)cc3)CC2)cc(OC)c1 | active: 5.01 µM
51 | Cc1ccc(S/C=C\C(=O)c2ccccc2)cc1 | inconclusive: 3.16 µM [activator, partial curve]
52 | C(=N\N(c1ccccc1)c1ccccc1)/c1ccccn1 | inactive
53 | O=C(O)CCc1ccc(-c2ccccc2)n1-c1ccc(C(=O)O)cc1 | inactive
54 | O=C(CNC(=O)c1cccc(F)c1)N/N=C/c1ccc([N+](=O)[O-])s1 | inactive
55 | Cc1cc(/C=N/NC(=O)c2cccs2)c(C)n1-c1ccccc1 | inconclusive: 1.12 µM [activator, full curve]
56 | NC(=O)CC(NC(=O)c1ccc(Br)cc1)c1ccc(N2CCCCCCC2)c([N+](=O)[O-])c1 (centres undefined) | inconclusive: 15.8 µM [inhibitor, single point]
57 | Cc1ccc[n+](CC(=O)Nc2ccc(N(C)C)cc2)c1 | inconclusive: 5.62 µM [inhibitor, partial curve, poor fit]
58 | O=C(CSc1ccc(-c2cccnc2)nn1)Nc1ccccc1C(F)(F)F | inconclusive: 12.6 µM [inhibitor, partial curve, poor fit]
59 | C/C=C(\CS(=O)(=O)c1ccccc1)S(=O)(=O)c1ccccc1 | inconclusive: 17.8 µM [inhibitor, partial curve, poor fit]
60 | C[C@@H]1[C@H](O)C[C@@]23COC(=O)C2=CCCC3[C@@]1(C)CCC1COC(=O)C1 (some centres undefined) | inconclusive: 2.82 µM [inhibitor, partial curve, poor fit]
61 | Cc1cccc(NC(=S)/N=C(\N)Nc2nc(C)c3ccccc3n2)c1 | active: 12.6 µM
62 | CCN(CC)c1ccc2c(C)c(-c3ccc(N)cc3)c(=O)oc2c1 | inconclusive: 15.8 µM [inhibitor, single point]
63 | O=C(/C=C/c1ccccc1)Nc1sc2c(c1C(=O)O)CCC2 | inconclusive: 0.355 µM [inhibitor, full curve, poor fit]
64 | O=C(NC1CCCCC1)N1CCN(c2ccc([N+](=O)[O-])cc2)CC1 | active: 12.6 µM
65 | COc1ccc2[nH]c3c(c2c1)CCN1C(=O)N([C@@H](C)C(=O)NCCc2ccc(F)cc2)C(=O)[C@]31C | inconclusive: 10 µM [inhibitor, partial curve, poor fit]
66 | Cc1ccc2c(CN(C)Cc3cccc(Cl)c3)cc(=O)oc2c1C | inconclusive: 6.31 µM [inhibitor, partial curve, poor fit]
67 | Cc1ccc(Nc2nc(=O)c3cccnc3s2)c(Br)c1 | inactive
68 | COC(=O)c1cc(=O)n(Cc2ccco2)c(=Nc2ccc(F)cc2)s1 | inconclusive: 17.8 µM [inhibitor, single point]
69 | CC(=O)N1CCc2cc(S(=O)(=O)NCCC(=O)N3CCN(c4ccccn4)CC3)ccc21 | active: 7.94 µM
